This is one part of the list. Many values rest on one well or one pass, so single values are uncertain.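 Cells were imaged in 1,536-well plates, and nuclei stained with an antibody against cleaved PARP were counted against all DNA-stained nuclei to give the apoptosis fraction. Screening doses were chosen to leave most cells alive, and resting and induced cleaved-PARP levels differ strongly between cell lines.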
Test system: CBRC008 (line from a melanoma biopsy)
Assay: cleaved PARP positive nuclei fraction relative to DMSO control; melanoma cells; higher = more apoptosis
Conditions: library dose: low library concentration; 72 h

SMILES | cleaved PARP positive nuclei fraction [%]
C=C(c1ccc(C(=O)O)cc1)c1cc2c(cc1C)C(C)(C)CCC2(C)C [Bexarotene] + COC(=O)c1sccc1S(=O)(=O)Nc1ccc(Nc2ccccc2)cc1OC [GSK0660] (first compound 2 µM, partner dose 1 µM) | 126
Nc1nc(F)nc2c1ncn2[C@@H]1O[C@H](CO)[C@@H](O)[C@@H]1O [fludarabine] + COc1ccc2c(c1)CCC1C2CCC2(C)C(NCCCCCCN3C(=O)C=CC3=O)CCC12 [U73122] (first compound 0.2 µM, partner dose 0.4 µM) | 46.6
O=C(O)[C@@H]1[O][Sb](=[O])([O][Sb]2(=[O])[O][C@H]([C@H](O)CO)[C@H](O)[C@H](C(=O)O)[O]2)[O][C@H]([C@H](O)CO)[C@@H]1O (some centres not stated) [stibogluconate] + O=C(O)C(=O)Nc1sc2c(c1C(=O)O)CCNC2 [TCS401] (first compound 2 µM, partner dose 1.66667 µM) | 45
C=C(c1ccc(C(=O)O)cc1)c1cc2c(cc1C)C(C)(C)CCC2(C)C [Bexarotene] + Cc1cc([N+](=O)[O-])ccc1NS(=O)(=O)c1cc(Cl)ccc1Cl [FH535] (first compound 2 µM, partner dose 1 µM) | 339
C=C(c1ccc(C(=O)O)cc1)c1cc2c(cc1C)C(C)(C)CCC2(C)C [Bexarotene] + COc1ccc(COc2ccc(Cc3cnc(N)nc3N)cc2OC)cc1 [GW2580] (first compound 2 µM, partner dose 1 µM) | 119
Nc1nc(F)nc2c1ncn2[C@@H]1O[C@H](CO)[C@@H](O)[C@@H]1O [fludarabine] + O=C(Nc1ccccc1)c1cc([N+](=O)[O-])ccc1Cl [GW9662] (first compound 0.2 µM, partner dose 2 µM) | 126
CC(C)C[C@H](NC(=O)[C@H](Cc1ccccc1)NC(=O)c1cnccn1)B(O)O [Bortezomib] + COC(=O)c1sccc1S(=O)(=O)Nc1ccc(Nc2ccccc2)cc1OC [GSK0660] (first compound 0.001 µM, partner dose 1 µM) | 535
CN1CCN(c2ccc3nc(-c4c(N)c5c(F)cccc5[nH]c4=O)[nH]c3c2)CC1 [Dovitinib] + COc1ccc(COc2ccc(Cc3cnc(N)nc3N)cc2OC)cc1 [GW2580] (first compound 0.1 µM, partner dose 1 µM) | 213
Cn1c(=O)n(-c2ccc(C(C)(C)C#N)cc2)c2c3cc(-c4cnc5ccccc5c4)ccc3ncc21 + Cc1cc([N+](=O)[O-])ccc1NS(=O)(=O)c1cc(Cl)ccc1Cl [FH535] (first compound 0.004 µM, partner dose 1 µM) | 1060
CCCS(=O)(=O)Nc1ccc(F)c(C(=O)c2c[nH]c3ncc(Cl)cc23)c1F + Oc1nc(-c2ccc(C(F)(F)F)cc2)nc2c1CSCC2 [XAV939] (first compound 0.08 µM, partner dose 2 µM) | 108
Nc1nc(F)nc2c1ncn2[C@@H]1O[C@H](CO)[C@@H](O)[C@@H]1O [fludarabine] + COc1ccc(-c2ccc3c(N4CCOCC4)nc(N4C[C@@H](C)O[C@@H](C)C4)nc3n2)cc1CO [KU0063794] (first compound 0.2 µM, partner dose 0.02 µM) | 28.8
CS(=O)(=O)CCNCc1ccc(-c2ccc3ncnc(Nc4ccc(OCc5cccc(F)c5)c(Cl)c4)c3c2)o1 [lapatinib] + O=C(Nc1ccccc1)c1cc([N+](=O)[O-])ccc1Cl [GW9662] (first compound 0.8 µM, partner dose 2 µM) | 58.3
C=C(c1ccc(C(=O)O)cc1)c1cc2c(cc1C)C(C)(C)CCC2(C)C [Bexarotene] + CCc1ccc(CCOc2ccc(CC3SC(=O)NC3=O)cc2)nc1 [pioglitazone] (first compound 2 µM, partner dose 2 µM) | 116
C=C(c1ccc(C(=O)O)cc1)c1cc2c(cc1C)C(C)(C)CCC2(C)C [Bexarotene] + c1cc(-c2cnn3cc(-c4ccc(OCCN5CCCCC5)cc4)cnc23)ccn1 [Dorsomorphin] (first compound 2 µM, partner dose 0.4 µM) | 67.7
CS(=O)(=O)CCNCc1ccc(-c2ccc3ncnc(Nc4ccc(OCc5cccc(F)c5)c(Cl)c4)c3c2)o1 [lapatinib] + COc1cc(N2CCC(N3CCN(C)CC3)CC2)ccc1Nc1ncc(Cl)c(Nc2ccccc2S(=O)(=O)C(C)C)n1 [NVP-TAE684] (first compound 0.8 µM, partner dose 0.08 µM) | 104
CNC(=O)c1cc(Oc2ccc(NC(=O)Nc3ccc(Cl)c(C(F)(F)F)c3)cc2)ccn1 [sorafenib] + CCN(CC)CCCCNc1ncc2cc(-c3cc(OC)cc(OC)c3)c(NC(=O)NC(C)(C)C)nc2n1 [PD173074] (first compound 0.4 µM, partner dose 0.1 µM) | 53.9
CO[C@H]1C[C@@H]2CC[C@@H](C)[C@@](O)(O2)C(=O)C(=O)N2CCCC[C@H]2C(=O)O[C@H]([C@H](C)C[C@@H]2CC[C@@H](OCCO)[C@H](OC)C2)CC(=O)[C@H](C)/C=C(\C)[C@@H](O)[C@@H](OC)C(=O)[C@H](C)C[C@H](C)/C=C/C=C/C=C/1C [everolimus] + O=C1NC(=O)/C(=C/c2ccc(-c3ccc(F)cc3O)o2)S1 [AS252424] (first compound 0.02 µM, partner dose 1 µM) | 300

Part of the list above, reformatted.
SMILES	cleaved PARP positive nuclei fraction [%]
Nc1nc(F)nc2c1ncn2[C@@H]1O[C@H](CO)[C@@H](O)[C@@H]1O [fludarabine] + O=C(Nc1ccccc1)c1cc([N+](=O)[O-])ccc1Cl [GW9662] (first compound 0.2 µM, partner dose 2 µM)	126
CC(C)C[C@H](NC(=O)[C@H](Cc1ccccc1)NC(=O)c1cnccn1)B(O)O [Bortezomib] + COC(=O)c1sccc1S(=O)(=O)Nc1ccc(Nc2ccccc2)cc1OC [GSK0660] (first compound 0.001 µM, partner dose 1 µM)	535

— the supplement of paper PMC4604168 (melanoma cell lines)
